Assay results as given in the supplement of paper PMC10373366.
Structures can show the parent of a compound that is named as a salt. The list shows a part of the results. Many values rest on one well or one pass, so single values are uncertain.

Tested on: patient-derived ovarian cancer cells (PDC)
Assay: cell growth inhibition ratio vs untreated control (CCK8); higher = stronger inhibition of cell viability
Conditions: 10 µM; 48 h
Procedure: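 Natural product library (Topscience) screened at 10 µM final concentration for 48 h on ovarian cancer A2780 cells and patient-derived ovarian cancer cells (PDC) in 96-well plates; viability read by CCK8 and reported as inhibition ratio (%) relative to untreated control. Single-dose primary screen.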

| SMILES | cell growth inhibition ratio [%] |
| --- | --- |
| COc1cccc2c1cc([N+](=O)[O-])c1c(C(=O)O)cc3c(c12)OCO3 [Aristolochic Acid] | 70.4 |
| C=C[C@H]1CN2CC[C@H]1C[C@@H]2[C@@H](O)c1ccnc2ccccc12 [Cinchonine] | -0.983 |
| O=c1ccc2cc(O[C@@H]3O[C@H](CO)[C@@H](O)[C@H](O)[C@H]3O)c(O)cc2o1 [Esculin] | 6.69 |
| CNC(=O)Oc1ccc2c(c1)[C@]1(C)CCN(C)[C@@H]1N2C [Physostigmine Salicylate] | -4.42 |
| COc1ccc(CC2NCCc3cc(OC)c(OC)cc32)cc1OC (stereo not drawn) [Tetrahydropapaverine hydrochloride] | 12.7 |
| CN1CCc2cc3c(cc2C1C1OC(=O)c2c1ccc1c2OCO1)OCO3 (single isomer, unassigned; (+)) [(+)-Bicuculline] | 5.62 |
| COc1ccc(Cc2nccc3cc(OC)c(OC)cc23)cc1OC [Papaverine hydrochloride] | 4.36 |
| C/C=C(\C)C(=O)N[C@@H](c1ccccc1)[C@@H](O)C(=O)O[C@H]1C[C@@]2(O)[C@@H](OC(=O)c3ccccc3)[C@@H]3[C@]4(OC(C)=O)CO[C@@H]4C[C@H](O)[C@@]3(C)C(=O)[C@H](OC(C)=O)C(=C1C)C2(C)C [Cephalomannine] | 61.5 |
| COC1=C[C@@H]2[C@@H]3Cc4ccc(OC)c(O)c4[C@]2(CCN3C)CC1=O [Sinomenine hydrochloride] | -10.3 |
| CC(=O)O[C@H]1[C@H]2[C@@H](OC(=O)Cc3ccccc3)[C@@H](C)C[C@]2(OC(C)=O)C(=O)/C(C)=C/[C@@H]2[C@H](CC[C@@]13CO3)C2(C)C [Euphorbiasteroid] | 11.9 |
| NCC(O)c1ccc(O)cc1 (stereo not drawn) [Octopamine hydrochloride] | 8.71 |
| CC(C)=CCOc1c2occc2cc2ccc(=O)oc12 [Imperatorin] | 7.56 |
| COc1ccc(C=Cc2cc(OC)cc(OC)c2)cc1 [3,5,4'-Trimethoxystilbene] | 12.6 |
| CC(C)(C)[C@]1(O)CC2OC(=O)CC23C(=O)OC2OC(=O)[C@H](O)C231 (stereo partly drawn) [Bilobalide] | 4.87 |
| COc1cccc(C=O)c1OC [o-Veratraldehyde] | 6.26 |
| COc1cc2c(cc1OC)C13CCN4CC5=CCOC6CC(=O)N2C1C6C5CC43 (stereo not drawn) [Brucin] | 3.34 |
| NCCc1ccccc1 [Phenethylamine] | -9.44 |

| SMILES | cell growth inhibition ratio [%] |
| --- | --- |
| COc1cc([C@@H]2c3cc4c(cc3[C@H](O)[C@H]3COC(=O)[C@H]23)OCO4)cc(OC)c1OC [Podophyllotoxin] | 55.2 |
| C=C[C@H]1CN2CC[C@H]1C[C@H]2[C@H](O)c1ccnc2ccccc12 [Cinchonidine] | -6.46 |
| CC(C)=CCC[C@]1(C)C=Cc2c(O)c3c(c(CC=C(C)C)c2O1)O[C@]12C(=C[C@@H]4C[C@H]1C(C)(C)O[C@@]2(C/C=C(/C)C(=O)O)C4=O)C3=O [Gambogic Acid] | -5.65 |
| CCC(=O)O[C@H]1CC[C@H]2[C@@H]3CC[C@H]4CC(=O)[C@H](C)C[C@]4(C)[C@H]3CC[C@]12C [Drostanolone Propionate] | 9.24 |
| CC1=CC(=O)c2c(O)cccc2C1=O [Plumbagin] | -5.52 |
| COC1=C[C@@H]2[C@@H]3Cc4ccc(OC)c(O)c4[C@]2(CCN3C)CC1=O [Sinomenine] | -4.82 |
| CN[C@@H]1[C@@H](O)[C@@H](O[C@@H]2[C@@H](O)[C@H](O[C@H]3O[C@H]([C@@H](C)O)[C@@H](O)[C@H](O)[C@H]3N)[C@@H](N)C[C@H]2N)OC[C@]1(C)O [Geneticin (G418 Sulfate)] | -8.14 |
| C[C@@]1(C(=O)O)CC[C@]2(C)CC[C@]3(C)C4=CC(=O)c5c(cc(O)c(O)c5C=O)[C@]4(C)CC[C@@]3(C)[C@@H]2C1 [Demethylzeylasteral] | -6.65 |
| C[C@]12CC[C@H](O)CC1=CC[C@@H]1[C@@H]2CC[C@]2(C)C(=O)CC[C@@H]12 [Dehydroepiandrosterone] | 12.1 |
| CC1=C2[C@H]3OC(=O)[C@@H](C)[C@@H]3CC[C@@]2(C)C=CC1=O [α-santonin] | -3.12 |
| CC(=O)O[C@H]1[C@H]2O[C@]23[C@@H]2CC[C@@H]4C[C@@H](O)CC[C@]4(C)[C@H]2CC[C@]3(C)[C@H]1c1ccc(=O)oc1 [Cinobufagin] | 75.2 |
| O=C(/C=C/c1ccccc1)OC[C@H]1O[C@@H](O[C@@H]2OC=C[C@H]3[C@H](O)[C@@H]4O[C@]4(CO)[C@@H]23)[C@H](O)[C@@H](O)[C@@H]1O [Picroside I] | 10.8 |
| C1=C2CCCN[C@H]2[C@@H]2C[C@H]1[C@H]1CCCCN1C2 [Aloperine] | 3.42 |
| O=C1C=CC[C@@H]2[C@H]3CCCN4CCC[C@@H](CN12)[C@@H]34 [Sophocarpine] | -16.4 |
| CCC1(O)C(=O)OCc2c1cc1n(c2=O)Cc2cc3ccccc3nc2-1 (single isomer, unassigned; (+)) [(+)-Camptothecin] | 82.1 |
| COc1ccc2c(c1)[nH]c1c(C)nccc12 [Harmine hydrochloride] | 37.2 |

Retrieved one by one from the list above (two):

| SMILES | cell growth inhibition ratio [%] |
| --- | --- |
| C/C=C(\C)C(=O)N[C@@H](c1ccccc1)[C@@H](O)C(=O)O[C@H]1C[C@@]2(O)[C@@H](OC(=O)c3ccccc3)[C@@H]3[C@]4(OC(C)=O)CO[C@@H]4C[C@H](O)[C@@]3(C)C(=O)[C@H](OC(C)=O)C(=C1C)C2(C)C [Cephalomannine] | 61.5 |
| COc1ccc(C=Cc2cc(OC)cc(OC)c2)cc1 [3,5,4'-Trimethoxystilbene] | 12.6 |
